According to PubChem BioAssay AID493014 (National Center for Advancing Translational Sciences (NCATS), 2011):
Screen size: about 340,000 compounds; about 170 (0.05%) were called active. The inconclusive results got no clear call from the source; some entries with a clear call stand among them for comparison. Calls follow the shape of the dose curve; as a rule, active = well fitted inhibition curve with a large enough effect in the signal ratio, with a control signal flat (not every such curve was filed as active); inconclusive = small, poorly fitted or top-dose-only effect, or effect the other way, or a change in a side signal; inactive = flat fitted curve, though single readings scatter; the % refers to the signal ratio. Potencies beside an inconclusive call are fits to weak or partial responses and may not hold up.
Potency is read from the fitted curve at half-maximal effect.

Experiment: qHTS Assay to Find Inhibitors of Chronic Active B-Cell Receptor Signaling;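 as to activity change, negative = inhibition: plate controls were basal doxycycline-induced cells for no effect and cells given 10 µM MG132 for full effect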
Details: ABC-DLBCL IkBa-CBG/CBR reporter, luminescence ratio (green luciferase fused to IkBa over red control in TMD8 lymphoma cells), 4 h; activity change, negative = inhibition: at 46.1 µM (top of the series) unless noted
Procedure, shortened: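 TMD8 ABC-DLBCL cells carrying doxycycline-inducible green luciferase fused to IkappaBalpha plus unfused red luciferase were exposed to compounds (up to 46 uM) for 4 hrs at 37C. Activity came from the overlap-corrected green/red luminescence ratio.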
With `Cc1cc(C(=O)Nc2ccccn2)cs1` the activity change, negative = inhibition was inconclusive: -10.6%. In the case of `O=C(Nc1ccc(F)c(F)c1)C1CCCCC1`, the activity change, negative = inhibition is reported as inconclusive: 0.436%. In the case of `COc1ccccc1N(C(=O)c1ccncc1)c1nc(-c2ccc([N+](=O)[O-])cc2)cs1`, the “activity change, negative = inhibition” value is reported as inactive: 0.202%. In the case of `O=C1CSC(c2cn(-c3ccccc3)nc2-c2cc3ccccc3o2)N1Cc1ccccc1` (stereo unspecified), the activity change, negative = inhibition is reported as inconclusive: -17.4%. With `CCCOc1ccc(C(=O)C(CN2CCOCC2)c2ccccc2)cc1` (stereo unspecified) the activity change, negative = inhibition was inconclusive: -9.44%. In the case of `COc1ccc(Nc2c([N+](=O)[O-])ccc3c2=NC2(CCCCC2)N=3)cc1`, the activity change, negative = inhibition is reported as inconclusive: 23.1%. For `COC(=O)c1ccc(Sc2nnnn2-c2ccccc2)c([N+](=O)[O-])c1`, the Potency was inconclusive: 35.5 µM [falling, single point]. In the case of `CCn1c(-c2ccc3[nH]c(C)c(C)c3c2)n[nH]c1=S`, the “activity change, negative = inhibition” value is reported as inactive: -0.923%. In the case of `CCC1C(c2ccccc2)N(C)C(c2ccccc2)CC1(O)c1ccccc1` (stereo unspecified), the “activity change, negative = inhibition” value is reported as inactive: 15.3%. With `O=C1CN(C(=O)CSc2nc3cc(Cl)ccc3c(=O)n2Cc2ccccc2)c2ccccc2N1` the activity change, negative = inhibition was inconclusive: 28%. For `CC(=O)c1cccc(Nc2nc(-c3sc(N)nc3C)cs2)c1`, the Potency was inconclusive: 14.1 µM [falling, partial curve, poor fit]. In the case of `O=C1N/C(=N/c2ccccn2)SC1Cc1ccccc1` (stereo unspecified), the activity change, negative = inhibition is reported as inconclusive: -0.7%. For `CCOC(=O)Cc1ccc(NCc2ccc(Cl)cc2)cc1`, the Potency was inconclusive: 10 µM [rising, partial curve, poor fit]. In the case of `COCCCNC(=O)/C(C#N)=C/c1c(N2CCN(c3ccc(OC)cc3)CC2)nc2c(C)cccn2c1=O`, the activity change, negative = inhibition is reported as inconclusive: 6.26%. In the case of `CCOC(=O)Cc1csc(NC(=O)c2cc(C)cc(C)c2)n1`, the activity change, negative = inhibition is reported as inconclusive: -10%. For `Cc1ccc(NC(=S)c2ccc(N(C)C)cc2)cc1`, the Potency was inconclusive: 23.1 µM [falling, single point]. With `Cc1cc(N/N=C/c2cccc(Cl)c2)nc(-n2nc(C)cc2C)n1` the “activity change, negative = inhibition” value was inactive: -20.8%. In the case of `Cc1noc(/C=C/c2ccco2)c1S(=O)(=O)N1CCC(C(=O)N2c3ccccc3CC2C)CC1` (stereo unspecified), the activity change, negative = inhibition is reported as inconclusive: -5.73%. In the case of `Cc1c(Cl)c([N+](=O)[O-])nn1CC(=O)NCc1cccs1`, the activity change, negative = inhibition is reported as inconclusive: 16%. For `O=C(CSc1nc2ccccc2nc1N1CCCCC1)N1CCN(c2ccccc2)CC1`, the Potency was inconclusive: 4.47 µM [falling, single point]. In the case of `COc1ccc(C(C[N+](=O)[O-])c2c(C)[nH]n(-c3ccccc3)c2=O)cc1` (stereo unspecified), the activity change, negative = inhibition is reported as inconclusive: -2.66%. In the case of `COc1cccc(NC(=O)CN(C)CC(=O)Nc2cccc(C(F)(F)F)c2)c1`, the Potency is reported as inconclusive: 20 µM [falling, single point]. In the case of `COc1ccc(C2c3c(ncn(CCCO)c3=N)Oc3ccc4ccccc4c32)cc1OC` (stereo unspecified), the activity change, negative = inhibition is reported as inconclusive: 1.22%. In the case of `Cc1cc(/C=C(\C#N)C(=O)N2CCOCC2)c(C)n1C1CCCC1`, the Potency is reported as inconclusive: 6.31 µM [rising, partial curve, poor fit]. With `CCCCN1CCNC[C@@H]1c1ccccc1` the “activity change, negative = inhibition” value was inactive: -8.22%. In the case of `COc1ccc(-c2ccc([C@H]3[C@@H]4C=CCC[C@@]4(C)C(=O)N3Cc3ccccc3)c(F)c2)cc1`, the “activity change, negative = inhibition” value is reported as inactive: -5.82%. With `c1ccc(NCc2cccnc2)cc1` the “activity change, negative = inhibition” value was inactive: 7.15%. For `Cc1cc(-c2nnc3n2N=C(c2ccccc2Br)CS3)n[nH]1`, the “activity change, negative = inhibition” value was inactive: -18.5%. For `CCCCCCC(O)(c1ccccc1)C(CN1CCOCC1)c1ccccc1` (stereo unspecified), the “activity change, negative = inhibition” value was inactive: 2.66%. In the case of `NC1=NC(c2ccc(Cl)cc2)C(C(=O)c2ccccc2)N1` (stereo unspecified), the Potency is reported as inconclusive: 17.8 µM [falling, single point]. With `O=C(NC1CCCC1)c1cc(-c2cccs2)on1` the Potency was inconclusive: 22.4 µM [falling, partial curve]. For `Cc1cccc(NC(=O)Cn2c(=O)oc3ccccc32)c1`, the Potency was inconclusive: 11.2 µM [falling, partial curve]. For `CC1(c2nnc(-c3ccc(Cl)cc3)o2)CC(c2c(Cl)cccc2Cl)=NO1` (stereo unspecified), the activity change, negative = inhibition was inconclusive: 7.56%. In the case of `CCOC(=O)c1ccc(NC(=S)NNC(=O)C2(C)CC2(Cl)Cl)cc1` (stereo unspecified), the Potency is reported as inconclusive: 5.8 µM [falling, partial curve]. For `Clc1ccccc1Cn1nnc2c(Nc3ccccc3)ncnc21`, the activity change, negative = inhibition was inconclusive: -16.5%. With `COc1ccccc1CN1CCNC(=O)C1CC(=O)N(C)Cc1cnccn1` (stereo unspecified) the activity change, negative = inhibition was inconclusive: -4.75%. For `Cc1ccc(OCCCC(=O)Nc2ccc(Cl)c(S(=O)(=O)N3CCOCC3)c2)cc1`, the Potency was inconclusive: 18.4 µM [falling, partial curve, poor fit]. With `Cc1cc(=O)[nH]c(SCC(=O)Nc2ccccc2[N+](=O)[O-])n1` the activity change, negative = inhibition was inconclusive: 13.6%. With `CNS(=O)(=O)c1cc(C(=O)NCc2ccco2)ccc1Cl` the Potency was inconclusive: 32.6 µM [falling, single point]. In the case of `CCOC(=O)c1cc2sccc2n1CC(=O)C(C)(C)C`, the activity change, negative = inhibition is reported as inconclusive: -9.64%. For `O=[N+]([O-])c1ccc(-c2cnc(SC(c3ccccc3)c3ccccc3)[nH]2)cc1`, the Potency was inconclusive: 29.1 µM [rising, partial curve, poor fit]. In the case of `CCOc1ccccc1C1CC(c2cccs2)=NN1S(C)(=O)=O` (stereo unspecified), the activity change, negative = inhibition is reported as inconclusive: 8.13%. In the case of `CN(C)c1ccc(/C=C/c2cccc[n+]2[O-])cc1`, the Potency is reported as inconclusive: 35.5 µM [falling, single point]. With `COc1ccccc1NC(=O)CN1CCC(n2nnc3cc(F)ccc32)CC1` the “activity change, negative = inhibition” value was inactive: -0.435%. With `COc1ccc(-c2ccc(C#N)c(OC)n2)cc1` the activity change, negative = inhibition was inconclusive: -1.08%. In the case of `COc1ccccc1C1=Nn2c(nnc2C2CCCCC2)SC1`, the “activity change, negative = inhibition” value is reported as inactive: -19.7%. With `O=C(O)c1ccc(NCCC2=CCCCC2)c([N+](=O)[O-])c1` the Potency was inconclusive: 10 µM [rising, partial curve, poor fit]. With `COC(=O)c1ccc(C)c(-n2c(=O)n(Cc3ccccc3)c(=O)c3[nH]cnc32)c1` the activity change, negative = inhibition was inconclusive: -18.1%. For `Cn1c2ccccc2c2ncn(CCC3=CCCCC3)c(=O)c21`, the activity change, negative = inhibition was inconclusive: -9.32%. For `COCCCNC(=O)c1cc2c(=O)n(C)c3ccccc3c2n1C`, the activity change, negative = inhibition was inconclusive: -11.3%. For `NC(=O)C1CCN(CC(O)COCc2ccccc2Cl)CC1` (stereo unspecified), the activity change, negative = inhibition was inconclusive: 13.7%. In the case of `CCOc1ccc(N=Nc2ccc(O)c3ncccc23)cc1`, the activity change, negative = inhibition is reported as inconclusive: 2.1%. For `CCN(CC)c1ccc2cc(C(=O)NNC(=O)c3ccc(S(=O)(=O)N4CCCCC4)cc3)c(=O)oc2c1`, the “activity change, negative = inhibition” value was inactive: -10.6%. In the case of `COc1cc2c(cc1NC(=O)C(c1ccccc1)c1ccccc1)CCCC2`, the “activity change, negative = inhibition” value is reported as inactive: 16.2%. For `Cc1cc(C)cc(NC(=O)CSc2nc3nc(C)cc(C)c3c(=O)[nH]2)c1`, the activity change, negative = inhibition was inconclusive: -6.13%. With `O=C(COC(=O)c1ccc(S(=O)(=O)N2CCc3ccccc3C2)cc1)NC(=O)NCc1ccco1` the activity change, negative = inhibition was inconclusive: 13.1%. With `O=C(c1cccs1)c1coc2ccc(O)cc12` the activity change, negative = inhibition was inconclusive: 20.4%. With `Cc1cc(-c2nnc(SCC(=O)Nc3nccs3)o2)no1` the activity change, negative = inhibition was inconclusive: -0.485%. With `COc1ccccc1/C=C/C(=O)N1CCc2cc(OC)c(OC)cc2C1C` (stereo unspecified) the Potency was inconclusive: 22.4 µM [falling, partial curve, poor fit]. In the case of `CCN(CCCNC(=O)CCCCn1c(=O)[nH]c2ccccc2c1=O)c1ccccc1`, the activity change, negative = inhibition is reported as inconclusive: -0.168%. In the case of `Cc1cc(C)c[n+](-c2nc3ccccc3nc2[N-]S(=O)(=O)c2ccc(Cl)cc2)c1`, the activity change, negative = inhibition is reported as inconclusive: -18.3%. For `CCCCC(=O)Nc1nc2c(s1)COc1ccccc1-2`, the Potency was inconclusive: 0.355 µM [rising, partial curve, poor fit]. For `O=C(NCc1ccccc1)C(c1c(F)cccc1Cl)N(C(=O)c1csnn1)C1CC1` (stereo unspecified), the “activity change, negative = inhibition” value was inactive: 8.5%. For `Cc1cc(=O)oc2cc3c(cc12)OCCO3`, the “activity change, negative = inhibition” value was inactive: 0.0332%. For `Cc1cc(C)c(NC(=O)CSc2nc3ccc(N4C(=O)c5ccccc5C4=O)cc3s2)c(C)c1`, the activity change, negative = inhibition was inconclusive: 9.49%. For `O=C1CC2C(CC(OC(=O)c3ccc(-c4ccccc4)cc3)C2CO)O1` (stereo unspecified), the activity change, negative = inhibition was inconclusive: 14%. For `CCn1c2ccccc2c2cc(NC(=O)COC(=O)C3CCC(=O)N3)ccc21` (stereo unspecified), the activity change, negative = inhibition was inconclusive: -17.7%. With `c1cncc(-c2nc3cc4ccccc4cc3[nH]2)c1` the Potency was inconclusive: 35.5 µM [falling, partial curve, poor fit]. With `CCOc1ccc2[nH]c(=O)c(CN(CCc3ccccc3)C(=O)c3cnccn3)cc2c1` the “activity change, negative = inhibition” value was inactive: -0.935%. With `COc1cc(C#Cc2c(-c3cncn3C)n(C)c3ccc(-c4ccc(OC)nc4)cc23)cc(OC)c1` the activity change, negative = inhibition was inconclusive: -5.86%. For `CCC(=O)c1cc(F)c(N2CCN(C(=O)Cc3ccccc3)CC2)cc1C`, the “activity change, negative = inhibition” value was inactive: 0.165%. For `CC(=O)Nc1ccc(S(=O)(=O)N(Cc2ccccc2)c2ccccc2F)cc1`, the Potency was inconclusive: 2.82 µM [falling, full curve]. With `Cn1c(=O)cc(SCC(=O)Nc2cccnc2)c2ccccc21` the Potency was inconclusive: 22.4 µM [falling, single point]. In the case of `COc1ccc(-n2nc3c(N4CCC(C(=O)NCc5cccc(C)c5)CC4)nnc(C)c3c2C)cc1`, the activity change, negative = inhibition is reported as inconclusive: 16.9%. With `O=S(=O)(c1cccs1)N1CCN(c2ccc(Cl)cc2)CC1` the activity change, negative = inhibition was inconclusive: 15.5%. In the case of `O=C(Nc1ccc(Cl)cc1)N1CCc2[nH]c3ccccc3c2C1`, the activity change, negative = inhibition is reported as inconclusive: 11.2%. With `COc1cc2ccccc2cc1C(=O)Nc1cc(C)ccn1` the activity change, negative = inhibition was inconclusive: -9.61%. In the case of `O=C(CCN1C(=O)c2cccc3cccc(c23)C1=O)N1CCOCC1`, the “activity change, negative = inhibition” value is reported as inactive: -0.841%. In the case of `Cc1ccc2oc(=O)c(/C=C(\O)c3cccs3)nc2c1`, the activity change, negative = inhibition is reported as inconclusive: 6.02%. With `COC(=O)c1sc(Nc2ccccc2)nc1C` the Potency was inconclusive: 35.5 µM [falling, partial curve, poor fit]. With `CC(C)C(=O)NCCCc1ccccc1` the “activity change, negative = inhibition” value was inactive: 4.48%.
